Assay: in vitro
Conditions: human, Caco-2

C[C@H]1O[C@@H](O[C@H]2[C@@H](O)C[C@H](O[C@H]3[C@@H](O)C[C@H](O[C@H]4CC[C@@]5(C)[C@H](CC[C@@H]6[C@@H]5C[C@@H](O)[C@]5(C)[C@@H](C7=CC(=O)OC7)CC[C@]65O)C4)O[C@@H]3C)O[C@@H]2C)C[C@H](O)[C@@H]1O [Digoxin]
efflux ratio: 26.3

Source: patent US20240166598A1, “COMPOUNDS, COMPOSITIONS, AND METHODS OF USING THE SAME” (priority 2021, published 2024)
